According to the RNAGym collection of RNA variant scans (doi:10.1126/science.aae0568):
Variants at the floor of the assay are shown more often than the library holds them.

B1: tRNA (parent)
chain: GUUCCGUUGGCGUAAUGGUAACGCGUCUCCCUCCUAAGGAGAAGACUGCGGGUUCGAGUCCCGUACGGAACG

Variants of: B1
Experiment: yeast fitness relative to wild type (ratio to wild type); higher = fitter; tRNA-Arg(CCU), competitive growth, 37 C, YPD
Method in brief: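 Amplicons of the tRNA-Arg(CCU) gene were sequenced, 100-nucleotide paired-end, from the start population and from each end population of a pooled yeast competition. The competition, in six parallel replicates, lasted 24 hours in YPD at 37°C. Fitness relative to wild type was calculated from changes in genotype frequencies. Genotypes had to have ≥ 100 starting reads, and estimates < 0.5 were set to 0.5.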

Row | Variant | yeast fitness
1 | C5G C11U G25C G52U | 0.618
2 | C5G C22A A37G G48A G50C | ≤ 0.5
3 | C5G C22A U26C C33G G63A | ≤ 0.5
4 | C5G C22U C62A A65C | ≤ 0.5
5 | C5G C22U U26G U32A U35A U53A | ≤ 0.5
6 | C5G C24G C61G | ≤ 0.5
7 | C5G C24U A43U C55U G68C | ≤ 0.5
8 | C5G C24U C27U U32C | ≤ 0.5
9 | C5G C27A C46U U54C | ≤ 0.5
10 | C5G C29A U53C C62A G67A | ≤ 0.5
11 | C5G C29G A37U A65G | ≤ 0.5
12 | C5G C29U A43C | 0.537
13 | C5G C29U G44C | ≤ 0.5
14 | C5G C29U U32A A37U G38C | ≤ 0.5
15 | C5G C30A A40G | ≤ 0.5
16 | C5G C30G A36G C62G | ≤ 0.5
17 | C5G C30U G50C | ≤ 0.5
18 | C5G C31A C66G | ≤ 0.5
19 | C5G C34G A70C | ≤ 0.5
20 | C5G C34G C49U | ≤ 0.5
21 | C5G C55A C62U | 0.546
22 | C5G C55G G58A C61U | ≤ 0.5
23 | C5G G6A C60A C66U | ≤ 0.5
24 | C5G G6C A15G C62U | ≤ 0.5

Row | Variant | yeast fitness
25 | C5G G6C C30A | ≤ 0.5
26 | C5G G9C A40C G58A | ≤ 0.5
27 | C5G G9C A43G | 0.667
28 | C5G G9C C33A U35C C46U C49U G52C C61U C66U | ≤ 0.5
29 | C5G G9C C46G C61A | ≤ 0.5
30 | C5G G9C G48C C49U | ≤ 0.5
31 | C5G G10C A65C | ≤ 0.5
32 | C5G G12A C49G G68C | ≤ 0.5
33 | C5G G12A U32C A40C G51A | ≤ 0.5
34 | C5G G17A G18A A65C G68C | ≤ 0.5
35 | C5G G17C G23C A70C | ≤ 0.5
36 | C5G G17C G25A G52A | ≤ 0.5
37 | C5G G18A G50A G51C | ≤ 0.5
38 | C5G G23A A43G G48C | ≤ 0.5
39 | C5G G23A C34G | ≤ 0.5
40 | C5G G23A U26C G50C C66U | ≤ 0.5
41 | C5G G23C C31G C60A A70U | ≤ 0.5
42 | C5G G23C C31U A37C A57G G67U | ≤ 0.5
43 | C5G G25C A43C C62U | ≤ 0.5
44 | C5G G25C C46G U64G | ≤ 0.5
45 | C5G G38C G41C A65G | ≤ 0.5
46 | C5G G41A G50C C55U A57G A70U | ≤ 0.5
47 | C5G G41A U64G A69C | ≤ 0.5
48 | C5G G52A A70U | ≤ 0.5

Row | Variant | yeast fitness
49 | C5G U7A C11U A36C G38A G44C | 0.589
50 | C5G U7A G44C U64A | ≤ 0.5
51 | C5G U7C A14U C24U C46G C61G | ≤ 0.5
52 | C5G U7G C33G A70U | ≤ 0.5
53 | C5G U7G U13A C33G A57C | ≤ 0.5
54 | C5G U8C A36C G48A | ≤ 0.5
55 | C5G U8G G38A C46A G50A U53C | ≤ 0.5
56 | C5G U13A C22G C29G A40U C46U A57C | ≤ 0.5
57 | C5G U13G A14U U59C C60U | ≤ 0.5
58 | C5G U13G A40U | ≤ 0.5
59 | C5G U13G A45U A69C | ≤ 0.5
60 | C5G U13G C29U A40G C60U A65G | ≤ 0.5
61 | C5G U13G C29U A40G C60U U64C A65G | ≤ 0.5
62 | C5G U16A G25A C46U G51C U64A | ≤ 0.5
63 | C5G U16A U19G A20C C27U C29U C30U A70C | ≤ 0.5
64 | C5G U16C C22G C34U U59A | ≤ 0.5
65 | C5G U19C A37C A45C C46U C55G | ≤ 0.5
66 | C5G U26C C34G | ≤ 0.5
67 | C5G U26C G44A A70G | ≤ 0.5
68 | C5G U28G A36G G38C C62G C66U | ≤ 0.5
69 | C5G U35C G44C C62A G68C A69U | ≤ 0.5
70 | C5G U54C C62U G68C | ≤ 0.5
71 | C5U A14C C46A C61G | ≤ 0.5
72 | C5U A14C G41C | 0.613

Row | Variant | yeast fitness
73 | C5U A14G A45C A65C | ≤ 0.5
74 | C5U A14U C33G A69C | ≤ 0.5
75 | C5U A14U G56A | ≤ 0.5
76 | C5U A14U G67U G68C | ≤ 0.5
77 | C5U A15G G17C | ≤ 0.5
78 | C5U A15G G48A G51C | ≤ 0.5
79 | C5U A15U C27G C62U | ≤ 0.5
80 | C5U A15U C30G C33G A40G A43U U54G | ≤ 0.5
81 | C5U A15U C31U C49U | ≤ 0.5
82 | C5U A20C C29A C62A A70C | ≤ 0.5
83 | C5U A20C C29U C34A C46A G50A A57U | ≤ 0.5
84 | C5U A20G C31U G52C | ≤ 0.5
85 | C5U A20G U35C A37G | ≤ 0.5
86 | C5U A20U C30U | ≤ 0.5
87 | C5U A20U C61U C62U | ≤ 0.5
88 | C5U A21C C30U C60A C61G | ≤ 0.5
89 | C5U A21G A42U U54G | 0.533
90 | C5U A21U G56C | ≤ 0.5
91 | C5U A37C C61G | ≤ 0.5
92 | C5U A37U U53A C66U G67A | ≤ 0.5
93 | C5U A42U A57C C61U A65U | ≤ 0.5
94 | C5U A45C A70U | 0.813
95 | C5U A45C C49G A69C | ≤ 0.5
96 | C5U A45U | 1.01

Row | Variant | yeast fitness
97 | C5U C11G A36U | ≤ 0.5
98 | C5U C11G C22U C30G G58C C60G | ≤ 0.5
99 | C5U C11U C29A A40C A45C C61G | 0.612
100 | C5U C11U C29U C30G A70C | ≤ 0.5
101 | C5U C11U C60U A69U | 0.538
102 | C5U C11U C62U G68A | ≤ 0.5
103 | C5U C11U U35G A43U C46G C62U | ≤ 0.5
104 | C5U C22A A40C A45G U54A | ≤ 0.5
105 | C5U C22A C27U G56A | ≤ 0.5
106 | C5U C22A U26C A36U A45U U47C C61U | ≤ 0.5
107 | C5U C22A U28A G52C | ≤ 0.5
108 | C5U C22G A42C U64G A70U | ≤ 0.5
109 | C5U C22G A45U C55A | ≤ 0.5
110 | C5U C22G A65G | 0.588
111 | C5U C22G C31G U54G | ≤ 0.5
112 | C5U C22G G38C C60U | ≤ 0.5
113 | C5U C22G G41A A70G | ≤ 0.5
114 | C5U C22U C24A C55A A65G | ≤ 0.5
115 | C5U C22U C33G C55G | ≤ 0.5
116 | C5U C24A C30U C62U | ≤ 0.5
117 | C5U C24A C33U U47C G63A G67C | ≤ 0.5
118 | C5U C24G A40C A45U | ≤ 0.5
119 | C5U C24G A42C U53G G67C | ≤ 0.5
120 | C5U C24U A40G | 0.637

Row | Variant | yeast fitness
121 | C5U C24U A42C A57U A70U | ≤ 0.5
122 | C5U C24U U35C G38C C62U A69G | ≤ 0.5
123 | C5U C27G C31U U53C | ≤ 0.5
124 | C5U C27G C33G | ≤ 0.5
125 | C5U C27G C33G A42C U64A | ≤ 0.5
126 | C5U C27G C46U | 0.753
127 | C5U C27U A36G U54A A69U | ≤ 0.5
128 | C5U C27U G41A | 0.573
129 | C5U C29G G56C G63C | ≤ 0.5
130 | C5U C31G C33G C34U C49U G68A | 0.543
131 | C5U C31U | 1.03
132 | C5U C33A C60U | ≤ 0.5
133 | C5U C33G G50C C62G C66U | ≤ 0.5
134 | C5U C33U A42G G67C | ≤ 0.5
135 | C5U C34A A45C C46U | ≤ 0.5
136 | C5U C34G U35C | 0.533
137 | C5U C46U C55A G56C | ≤ 0.5
138 | C5U C55G C61A | ≤ 0.5
139 | C5U C61A | 0.612
140 | C5U C66A | 0.729
141 | C5U C66G | 0.779
142 | C5U G6A C22G C29A A45U | ≤ 0.5
143 | C5U G6A C66U | 0.975
144 | C5U G6C A15C U26A G38C A43C | ≤ 0.5

Row | Variant | yeast fitness
145 | C5U G9A A43C C46U G56C | ≤ 0.5
146 | C5U G9C C27A A37U C49A G56A | ≤ 0.5
147 | C5U G10A | 0.702
148 | C5U G10C A57U | ≤ 0.5
149 | C5U G12A G17C C30A | ≤ 0.5
150 | C5U G12C A40C | ≤ 0.5
151 | C5U G17A A40U A42C C49A | 0.684
152 | C5U G17C A57G | ≤ 0.5
153 | C5U G17C C30A G50A C66G | ≤ 0.5
154 | C5U G17C U26G G68C | ≤ 0.5
155 | C5U G18C C49U U54G | ≤ 0.5
156 | C5U G23A C62A | ≤ 0.5
157 | C5U G23C A45C A70U | ≤ 0.5
158 | C5U G25A C29A C55G | ≤ 0.5
159 | C5U G25C A36C A40U | ≤ 0.5
160 | C5U G25C C29A G56A | ≤ 0.5
161 | C5U G44C C49G G52C U53A | ≤ 0.5
162 | C5U G51C G56A G58C | ≤ 0.5
163 | C5U G58A C61U A70G | 0.797
164 | C5U G58C U59C A70G | ≤ 0.5
165 | C5U U7A C30A G58C | 0.543
166 | C5U U7A C49U C62A A69G A70G | ≤ 0.5
167 | C5U U7A G10A G48C | ≤ 0.5
